± gives the standard deviation of the averaged measurements. Some of the results follow.
Compound: Nc1nc2c(ncn2[C@@H]2O[C@H](COP(=O)(O)OP(=O)(O)OP(=O)(O)O)[C@@H](O)[C@H]2O)c(=O)[nH]1 [guanosine triphosphate]
Assay: NP40-soluble protein abundance relative to vehicle (solubility fold change) (ratio); higher = more soluble protein in presence of GTP
Experimental: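 Solubility proteome profiling in Jurkat crude lysate. Lysate was treated with Mg-GTP (0.1-10 mM) for 10 min at room temperature and 3 min at 37 °C, then solubilised with 0.8% NP40 and benzonase, followed by ultracentrifugation. Proteins were quantified by TMT10 LC-MS/MS; the value is the NP40-soluble abundance relative to the NP40-processed vehicle, from 3 independent experiments.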

Sequences of proteins named here, by UniProt entry; tags and fusion partners are left off. A change or cut given only in a name is not applied to a line headed by its entry.
UniProt P23246: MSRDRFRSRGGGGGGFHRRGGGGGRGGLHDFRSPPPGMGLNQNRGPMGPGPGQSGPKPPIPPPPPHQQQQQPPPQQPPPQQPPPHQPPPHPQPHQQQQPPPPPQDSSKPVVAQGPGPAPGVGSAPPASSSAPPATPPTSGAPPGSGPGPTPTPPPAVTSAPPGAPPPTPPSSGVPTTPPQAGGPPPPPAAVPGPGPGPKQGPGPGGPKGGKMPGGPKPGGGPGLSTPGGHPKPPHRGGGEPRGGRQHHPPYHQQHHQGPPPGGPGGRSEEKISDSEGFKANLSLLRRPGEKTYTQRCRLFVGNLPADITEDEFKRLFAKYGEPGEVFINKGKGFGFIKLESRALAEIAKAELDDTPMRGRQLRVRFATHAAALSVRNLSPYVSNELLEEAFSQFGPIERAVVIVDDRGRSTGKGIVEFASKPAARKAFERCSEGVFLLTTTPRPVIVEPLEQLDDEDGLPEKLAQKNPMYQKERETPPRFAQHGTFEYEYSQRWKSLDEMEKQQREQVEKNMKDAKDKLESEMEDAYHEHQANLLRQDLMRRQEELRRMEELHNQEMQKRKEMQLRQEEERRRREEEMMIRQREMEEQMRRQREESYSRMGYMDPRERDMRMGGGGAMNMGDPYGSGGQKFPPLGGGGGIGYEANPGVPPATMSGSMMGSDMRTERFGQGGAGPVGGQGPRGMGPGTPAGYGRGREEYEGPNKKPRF
UniProt P22307: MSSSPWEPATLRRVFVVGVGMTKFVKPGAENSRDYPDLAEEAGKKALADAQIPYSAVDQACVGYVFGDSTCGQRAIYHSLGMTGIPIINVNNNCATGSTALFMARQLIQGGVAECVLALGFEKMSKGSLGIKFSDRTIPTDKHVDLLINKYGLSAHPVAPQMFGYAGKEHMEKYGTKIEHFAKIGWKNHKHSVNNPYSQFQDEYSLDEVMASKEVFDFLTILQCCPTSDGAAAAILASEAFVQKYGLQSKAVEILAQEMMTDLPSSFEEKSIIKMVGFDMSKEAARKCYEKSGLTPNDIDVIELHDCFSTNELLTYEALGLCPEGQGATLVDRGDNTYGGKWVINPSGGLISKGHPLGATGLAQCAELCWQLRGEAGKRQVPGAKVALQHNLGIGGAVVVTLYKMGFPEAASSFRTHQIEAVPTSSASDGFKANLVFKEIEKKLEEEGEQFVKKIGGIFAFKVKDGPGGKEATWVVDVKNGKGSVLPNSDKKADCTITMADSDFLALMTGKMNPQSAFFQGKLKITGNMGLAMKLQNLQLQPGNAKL
UniProt P08236: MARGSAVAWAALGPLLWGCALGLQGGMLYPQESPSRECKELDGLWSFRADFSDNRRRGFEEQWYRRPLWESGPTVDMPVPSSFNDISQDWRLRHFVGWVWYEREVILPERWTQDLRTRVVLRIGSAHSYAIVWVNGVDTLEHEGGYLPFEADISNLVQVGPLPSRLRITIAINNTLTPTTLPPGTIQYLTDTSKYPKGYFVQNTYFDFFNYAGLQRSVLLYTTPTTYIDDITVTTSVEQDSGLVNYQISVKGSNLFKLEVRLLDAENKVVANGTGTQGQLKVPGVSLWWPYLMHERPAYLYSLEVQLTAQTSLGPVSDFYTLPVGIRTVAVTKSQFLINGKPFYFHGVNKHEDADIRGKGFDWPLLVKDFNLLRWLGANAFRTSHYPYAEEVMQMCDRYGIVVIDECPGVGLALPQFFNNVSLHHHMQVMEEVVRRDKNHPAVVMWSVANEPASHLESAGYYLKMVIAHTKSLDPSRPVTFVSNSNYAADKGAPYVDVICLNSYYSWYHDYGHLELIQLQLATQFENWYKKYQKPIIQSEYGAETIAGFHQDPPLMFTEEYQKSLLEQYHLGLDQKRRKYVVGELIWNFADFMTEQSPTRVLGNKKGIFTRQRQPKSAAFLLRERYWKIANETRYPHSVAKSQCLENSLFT
UniProt P19367: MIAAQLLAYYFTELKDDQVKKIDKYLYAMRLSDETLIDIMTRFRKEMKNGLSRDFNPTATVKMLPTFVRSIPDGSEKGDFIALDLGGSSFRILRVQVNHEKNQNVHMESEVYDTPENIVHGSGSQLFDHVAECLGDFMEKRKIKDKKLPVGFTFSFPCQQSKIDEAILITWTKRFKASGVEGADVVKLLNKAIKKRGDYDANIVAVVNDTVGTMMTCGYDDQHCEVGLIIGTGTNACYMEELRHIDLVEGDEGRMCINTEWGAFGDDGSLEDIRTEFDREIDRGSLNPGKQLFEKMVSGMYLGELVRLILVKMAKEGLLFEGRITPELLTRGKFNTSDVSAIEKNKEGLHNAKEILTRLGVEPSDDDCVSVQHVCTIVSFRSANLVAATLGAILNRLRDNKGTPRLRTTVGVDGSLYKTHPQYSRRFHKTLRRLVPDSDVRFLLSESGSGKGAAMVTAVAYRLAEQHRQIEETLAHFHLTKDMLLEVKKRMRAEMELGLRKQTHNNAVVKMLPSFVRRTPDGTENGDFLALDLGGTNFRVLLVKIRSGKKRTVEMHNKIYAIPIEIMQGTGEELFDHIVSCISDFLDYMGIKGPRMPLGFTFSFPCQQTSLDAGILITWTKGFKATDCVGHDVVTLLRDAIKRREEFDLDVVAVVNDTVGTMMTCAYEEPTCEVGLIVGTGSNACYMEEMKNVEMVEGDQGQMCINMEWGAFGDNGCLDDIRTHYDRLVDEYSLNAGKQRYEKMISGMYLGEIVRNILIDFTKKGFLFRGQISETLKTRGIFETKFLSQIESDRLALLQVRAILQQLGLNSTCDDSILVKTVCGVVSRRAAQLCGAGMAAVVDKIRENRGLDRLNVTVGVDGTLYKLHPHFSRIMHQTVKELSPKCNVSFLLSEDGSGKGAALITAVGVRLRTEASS
UniProt P08670, whole entry: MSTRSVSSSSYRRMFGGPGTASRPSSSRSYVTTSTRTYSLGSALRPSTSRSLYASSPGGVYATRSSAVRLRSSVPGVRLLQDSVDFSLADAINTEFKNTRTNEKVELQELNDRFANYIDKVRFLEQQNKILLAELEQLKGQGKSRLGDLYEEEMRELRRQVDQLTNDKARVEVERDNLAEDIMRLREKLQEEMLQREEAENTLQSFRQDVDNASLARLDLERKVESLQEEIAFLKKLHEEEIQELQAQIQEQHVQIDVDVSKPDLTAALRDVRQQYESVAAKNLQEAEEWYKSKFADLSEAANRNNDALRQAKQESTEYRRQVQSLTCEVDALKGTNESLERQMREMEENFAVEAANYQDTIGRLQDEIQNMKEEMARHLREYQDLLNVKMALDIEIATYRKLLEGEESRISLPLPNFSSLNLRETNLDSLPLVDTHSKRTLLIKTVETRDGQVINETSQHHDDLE

Target: SFPQ (UniProt P23246)
- NP40-soluble protein abundance (concentration: 0.1mM): 0.998 ± 0.053
- NP40-soluble protein abundance (concentration: 0.5mM): 0.989 ± 0.086
- NP40-soluble protein abundance (concentration: 1mM): 1.03 ± 0.13
- NP40-soluble protein abundance (concentration: 2mM): 1.23 ± 0.14
- NP40-soluble protein abundance (concentration: 4mM): 1.61 ± 0.22
- NP40-soluble protein abundance (concentration: 6mM): 1.85 ± 0.28
- NP40-soluble protein abundance (concentration: 8mM): 2 ± 0.35
- NP40-soluble protein abundance (concentration: 10mM): 2.04 ± 0.36

Target: UniProt P22307 and related entries
- NP40-soluble protein abundance (concentration: 0.1mM): 0.893 ± 0.025
- NP40-soluble protein abundance (concentration: 0.5mM): 0.88 ± 0.053
- NP40-soluble protein abundance (concentration: 1mM): 0.92 ± 0.032
- NP40-soluble protein abundance (concentration: 2mM): 0.894 ± 0.064
- NP40-soluble protein abundance (concentration: 4mM): 0.879 ± 0.065
- NP40-soluble protein abundance (concentration: 6mM): 0.891 ± 0.066
- NP40-soluble protein abundance (concentration: 8mM): 0.866 ± 0.097
- NP40-soluble protein abundance (concentration: 10mM): 0.893 ± 0.075

Target: UniProt P08236 and related entries
- NP40-soluble protein abundance (concentration: 0.1mM): 1.1 ± 0.051
- NP40-soluble protein abundance (concentration: 0.5mM): 1.05 ± 0.1
- NP40-soluble protein abundance (concentration: 1mM): 1 ± 0.044
- NP40-soluble protein abundance (concentration: 2mM): 1.05 ± 0.043
- NP40-soluble protein abundance (concentration: 4mM): 0.997 ± 0.096
- NP40-soluble protein abundance (concentration: 6mM): 0.979 ± 0.087
- NP40-soluble protein abundance (concentration: 8mM): 1 ± 0.059
- NP40-soluble protein abundance (concentration: 10mM): 0.99 ± 0.11

Target: UniProt P19367 and related entries
- NP40-soluble protein abundance (concentration: 0.1mM): 1.04 ± 0.04
- NP40-soluble protein abundance (concentration: 0.5mM): 1.03 ± 0.07
- NP40-soluble protein abundance (concentration: 1mM): 0.924 ± 0.012
- NP40-soluble protein abundance (concentration: 2mM): 0.935 ± 0.06
- NP40-soluble protein abundance (concentration: 4mM): 0.922 ± 0.037
- NP40-soluble protein abundance (concentration: 6mM): 0.893 ± 0.04
- NP40-soluble protein abundance (concentration: 8mM): 0.869 ± 0.029
- NP40-soluble protein abundance (concentration: 10mM): 0.854 ± 0.064

Target: VIM (UniProt P08670)
- NP40-soluble protein abundance (concentration: 0.1mM): 0.9239 ± 0.0077
- NP40-soluble protein abundance (concentration: 0.5mM): 0.926 ± 0.025
- NP40-soluble protein abundance (concentration: 1mM): 1.01 ± 0.027
- NP40-soluble protein abundance (concentration: 2mM): 0.976 ± 0.028
- NP40-soluble protein abundance (concentration: 4mM): 0.959 ± 0.026
- NP40-soluble protein abundance (concentration: 6mM): 0.962 ± 0.011
- NP40-soluble protein abundance (concentration: 8mM): 0.968 ± 0.042
- NP40-soluble protein abundance (concentration: 10mM): 0.94 ± 0.047
